Laboratory results reported in patent publication US9352015B2, “Antimicrobial peptides” (priority 2009, dated 2016).
Read-outs that look alike come from different tables or passages of the source. Where a SMILES comes first, the peptide text is derived from it.

What was measured:
Gram-negative bacteria = test: MIC against Gram-negative bacteria (V681 analog studies); format: cell-based
Method: (§1) Minimal inhibitory concentrations (MICs) are determined using a standard microtiter dilution method, with 3 sets of determinations, in LB (Luria-Bertani) no-salt medium (10 g of tryptone and 5 g of yeast extract per liter). In some cases, Mueller Hinton (MH) medium or Brain Heart Infusion (BHI) medium is used.
(§2) Briefly, cells were grown overnight at 37° C. in LB and diluted in the same medium. Serial dilutions of the peptides are added to the microtiter plates in a volume of 100 μl followed by 10 μl of bacteria to give a final inoculum of 5×10^5 colony-forming units/ml. Plates are incubated at 37° C. for 24 hours and MICs determined as the lowest peptide concentration that inhibited growth. Alternatively, minimal inhibitory concentrations are determined using a standard microtiter dilution method in a Mueller-Hinton (MH) medium. Briefly, cells are grown overnight at 37° C. in MH broth and diluted in the same medium. In some cases, serial dilutions of the peptides are added to the microtiter plates in a volume of 100 μl followed by 10 μl of bacteria to give a final inoculum of 1×10^5 colony-forming units/ml. Plates are incubated at 37° C. for 24 hours and MICs are determined as the lowest peptide concentration that inhibited growth.

Acinetobacter baumannii = format: cell-based
Method: as §1, §2
The biological activities of these six peptide analogs was determined against 11 clinical isolated of Acinetobacter baumannii (Table 9). Please note that the activities are reported in micromolar rather than microgram/ml. This allows a direct comparison on a molar basis with the effectiveness of molecules of different molecular weights whether peptides disclosed herein or antibiotics which in general are smaller in molecular mass. […] These are the highest antimicrobial activities observed in studies of antimicrobial peptides derived by modifying the peptide sequence of SEQ ID NO:24 (D1). D22 has the best hemolytic activity of the six analogs (D17-D22) and a therapeutic index of […] compared to […] for D1 (Table 9). D22 has no apparent advantage over D1 as determined in these experiments.

Pseudomonas aeruginosa = conditions: for Pseudomonas aeruginosa Therapeutic index (HC50/MICGM): Table 12; for Therapeutic index HC50/MIC: HC50 over geometric mean MIC; for Therapeutic index HC50/MIC / Therapeutic index Fold (improvement compared to D1): P. aeruginosa

In the case of CC[C@H](C)[C@H](NC(=O)[C@H](C)NC(=O)[C@H](CCCCN)NC(=O)[C@H](CC(C)C)NC(=O)[C@H](C)NC(=O)[C@@H](NC(=O)[C@H](Cc1c[nH]cn1)NC(=O)[C@H](CC(C)C)NC(=O)[C@@H](NC(=O)[C@@H](NC(=O)[C@H](CCCCN)NC(=O)[C@H](CCCCN)NC(=O)[C@H](C)NC(=O)[C@H](CO)NC(=O)[C@H](CCCCN)NC(=O)[C@H](Cc1ccccc1)NC(=O)[C@@H](NC(=O)[C@H](CCCCN)NC(=O)[C@H](CC(C)C)NC(=O)[C@H](Cc1ccccc1)NC(=O)[C@H](CO)NC(=O)[C@H](CCCCN)NC(=O)[C@H](Cc1c[nH]c2ccccc12)NC(=O)[C@H](CCCCN)NC(C)=O)[C@@H](C)O)[C@@H](C)O)C(C)C)[C@@H](C)O)C(=O)N[C@@H](CO)C(=O)N[C@@H](CO)C(N)=O [NKL], the “Fold increase in therapeutic index against Gram-negative bacteria compared to V681” value (Gram-negative bacteria) is reported as 90 fold.

For CC(=O)N[C@H](CCCCN)C(=O)N[C@H](CC(C)C)C(=O)N[C@H](CCCCN)C(=O)N[C@H](CO)C(=O)N[C@H](CC(C)C)C(=O)N[C@H](CC(C)C)C(=O)N[C@H](CCCCN)C(=O)N[C@@H](C(=O)N[C@H](CC(C)C)C(=O)N[C@H](CO)C(=O)N[C@H](CCCCN)C(=O)N[C@H](CC(C)C)C(=O)N[C@H](CCCCN)C(=O)N[C@H](CCCCN)C(=O)N[C@H](CCCCN)C(=O)N[C@H](CCCCN)C(=O)N[C@H](CC(C)C)C(=O)N[C@H](CCCCN)C(=O)N[C@@H](C(=O)N[C@H](CC(C)C)C(=O)N[C@H](CC(C)C)C(=O)N[C@H](CCCCN)C(=O)N[C@H](CC(C)C)C(=O)N[C@H](CC(C)C)C(=O)N[C@H](CO)C(=O)N[C@H](CCCCN)C(N)=O)[C@H](C)O)[C@H](C)O [Peptide D24, Ac-KLKSLLKTLSKLKKKKLKTLLKLLSK-amide], the “Therapeutic Index HC50/MIC against A. baumannii” value (Acinetobacter baumannii) was 64.6 and the “Pseudomonas aeruginosa Therapeutic index (HC50/MICGM)” value (Pseudomonas aeruginosa) was 31.8.

CC[C@@H](C)[C@@H](NC(=O)[C@@H](C)NC(=O)[C@@H](CCCCN)NC(=O)[C@@H](CC(C)C)NC(=O)[C@@H](CC(C)C)NC(=O)[C@H](NC(=O)[C@@H](CCCCN)NC(=O)[C@@H](CC(C)C)NC(=O)[C@@H](CCCCN)NC(=O)[C@@H](CCCCN)NC(=O)[C@@H](CCCCN)NC(=O)[C@@H](CCCCN)NC(=O)[C@@H](C)NC(=O)[C@@H](CCCCN)NC(=O)[C@@H](CO)NC(=O)[C@@H](Cc1ccccc1)NC(=O)[C@H](NC(=O)[C@@H](CCCCN)NC(=O)[C@@H](CC(C)C)NC(=O)[C@@H](Cc1ccccc1)NC(=O)[C@@H](CO)NC(=O)[C@@H](CCCCN)NC(=O)[C@@H](Cc1c[nH]c2ccccc12)NC(=O)[C@@H](CCCCN)NC(C)=O)[C@H](C)O)[C@H](C)O)C(=O)N[C@H](CO)C(=O)N[C@H](CCCCN)C(N)=O [Peptide D14, Ac-KWKSFLKTFSKAKKKKLKTLLKAISK-amide] was tested, and the “Therapeutic Index HC50/MIC against A. baumannii” value (Acinetobacter baumannii) was 439.4.

With CC[C@H](C)[C@H](NC(=O)[C@H](C)NC(=O)[C@H](CCCCN)NC(=O)[C@H](CC(C)C)NC(=O)[C@H](C)NC(=O)[C@@H](NC(=O)[C@H](Cc1c[nH]cn1)NC(=O)[C@H](CC(C)C)NC(=O)[C@@H](NC(=O)[C@@H](NC(=O)[C@H](CCCCN)NC(=O)[C@@H](C)NC(=O)[C@H](C)NC(=O)[C@H](CO)NC(=O)[C@H](CCCCN)NC(=O)[C@H](Cc1ccccc1)NC(=O)[C@@H](NC(=O)[C@H](CCCCN)NC(=O)[C@H](CC(C)C)NC(=O)[C@H](Cc1ccccc1)NC(=O)[C@H](CO)NC(=O)[C@H](CCCCN)NC(=O)[C@H](Cc1c[nH]c2ccccc12)NC(=O)[C@H](CCCCN)NC(C)=O)[C@@H](C)O)[C@@H](C)O)C(C)C)[C@@H](C)O)C(=O)N[C@@H](CO)C(=O)N[C@@H](CO)C(N)=O [NAD] (HELM PEPTIDE1{[ac].K.W.K.S.F.L.K.T.F.K.S.A.[dA].K.T.V.L.H.T.A.L.K.A.I.S.S.[am]}$$$$V2.0) the “Fold increase in therapeutic index against Gram-negative bacteria compared to V681” value (Gram-negative bacteria) was 42 fold.

In the case of CC[C@@H](C)[C@@H](NC(=O)[C@@H](C)NC(=O)[C@@H](CCCCN)NC(=O)[C@@H](CC(C)C)NC(=O)[C@@H](CC(C)C)NC(=O)[C@H](NC(=O)[C@@H](CCCCN)NC(=O)[C@@H](CC(C)C)NC(=O)[C@@H](C)NC(=O)[C@@H](CCCCN)NC(=O)[C@@H](CCCCN)NC(=O)[C@@H](CCCCN)NC(=O)[C@@H](C)NC(=O)[C@@H](CCCCN)NC(=O)[C@@H](CO)NC(=O)[C@@H](Cc1ccccc1)NC(=O)[C@H](NC(=O)[C@@H](CCCCN)NC(=O)[C@@H](CC(C)C)NC(=O)[C@@H](Cc1ccccc1)NC(=O)[C@@H](CO)NC(=O)[C@@H](CCCCN)NC(=O)[C@@H](Cc1c[nH]c2ccccc12)NC(=O)[C@@H](CCCCN)NC(C)=O)[C@H](C)O)[C@H](C)O)C(=O)N[C@H](CO)C(=O)N[C@H](CCCCN)C(N)=O [Peptide D22, Ac-KWKSFLKTFSKAKKKALKTLLKAISK-amide], the “Therapeutic index against A. baumannii (printed with μM)” value (Acinetobacter baumannii; text to Table 9) is reported as 101.6 µM, the “Therapeutic index HC50/MIC” value (Pseudomonas aeruginosa; Brain Heart Infusion medium) is reported as 25.3 and the “Therapeutic index Fold (improvement compared to D1)” value (Pseudomonas aeruginosa; Brain Heart Infusion medium) is reported as 1.88. The “Therapeutic index HC50/MIC” value (Pseudomonas aeruginosa; Mueller Hinton medium) was 35.6 and the “Therapeutic index Fold (improvement compared to D1)” value (Pseudomonas aeruginosa; Mueller Hinton medium) was 1.05.

In the case of CC[C@@H](C)[C@@H](NC(=O)[C@@H](C)NC(=O)[C@@H](CCCCN)NC(=O)[C@@H](CC(C)C)NC(=O)[C@@H](C)NC(=O)[C@H](NC(=O)[C@@H](CCCCN)NC(=O)[C@@H](CC(C)C)NC(=O)[C@H](NC(=O)[C@@H](CCCCN)NC(=O)[C@@H](CCCCN)NC(=O)[C@@H](CCCCN)NC(=O)[C@@H](C)NC(=O)[C@@H](CCCCN)NC(=O)[C@@H](CO)NC(=O)[C@@H](Cc1ccccc1)NC(=O)[C@H](NC(=O)[C@@H](CCCCN)NC(=O)[C@@H](CC(C)C)NC(=O)[C@@H](Cc1ccccc1)NC(=O)[C@@H](CO)NC(=O)[C@@H](CCCCN)NC(=O)[C@@H](Cc1c[nH]c2ccccc12)NC(=O)[C@@H](CCCCN)NC(C)=O)[C@H](C)O)C(C)C)[C@H](C)O)C(=O)N[C@H](CO)C(=O)N[C@H](CCCCN)C(N)=O [Peptide D11, Ac-KWKSFLKTFSKAKKKVLKTALKAISK-amide], the “Therapeutic Index HC50/MIC against A. baumannii” value (Acinetobacter baumannii) is reported as 423.5.

CC(=O)N[C@H](CCCCN)C(=O)N[C@H](CC(C)C)C(=O)N[C@H](CCCCN)C(=O)N[C@H](CO)C(=O)N[C@H](CC(C)C)C(=O)N[C@H](CC(C)C)C(=O)N[C@H](CCCCN)C(=O)N[C@@H](C(=O)N[C@H](CC(C)C)C(=O)N[C@H](CO)C(=O)N[C@H](CCCCN)C(=O)N[C@H](C)C(=O)N[C@H](CCCCN)C(=O)N[C@H](CCCCN)C(=O)N[C@H](CCCCN)C(=O)N[C@H](CC(C)C)C(=O)N[C@H](CC(C)C)C(=O)N[C@H](CCCCN)C(=O)N[C@@H](C(=O)N[C@H](C)C(=O)N[C@H](CC(C)C)C(=O)N[C@H](CCCCN)C(=O)N[C@H](C)C(=O)N[C@H](CC(C)C)C(=O)N[C@H](CO)C(=O)N[C@H](CCCCN)C(N)=O)[C@H](C)O)[C@H](C)O [Peptide D15, Ac-KLKSLLKTLSKAKKKLLKTALKALSK-amide] was tested, and the “Therapeutic Index HC50/MIC against A. baumannii” value (Acinetobacter baumannii) was 339.2.

CC[C@@H](C)[C@@H](NC(=O)[C@@H](CC(C)C)NC(=O)[C@@H](CCCCN)NC(=O)[C@@H](CC(C)C)NC(=O)[C@@H](CC(C)C)NC(=O)[C@H](NC(=O)[C@@H](CCCCN)NC(=O)[C@@H](CC(C)C)NC(=O)[C@@H](CCCCN)NC(=O)[C@@H](CCCCN)NC(=O)[C@@H](CCCCN)NC(=O)[C@@H](CCCCN)NC(=O)[C@@H](CC(C)C)NC(=O)[C@@H](CCCCN)NC(=O)[C@@H](CO)NC(=O)[C@@H](Cc1ccccc1)NC(=O)[C@H](NC(=O)[C@@H](CCCCN)NC(=O)[C@@H](CC(C)C)NC(=O)[C@@H](Cc1ccccc1)NC(=O)[C@@H](CO)NC(=O)[C@@H](CCCCN)NC(=O)[C@@H](Cc1c[nH]c2ccccc12)NC(=O)[C@@H](CCCCN)NC(C)=O)[C@H](C)O)[C@H](C)O)C(=O)N[C@H](CO)C(=O)N[C@H](CCCCN)C(N)=O [Peptide D12, Ac-KWKSFLKTFSKLKKKKLKTLLKLISK-amide] was tested, and the “Therapeutic Index HC50/MIC against A. baumannii” value (Acinetobacter baumannii) was 9.6 and the “Pseudomonas aeruginosa Therapeutic index (HC50/MICGM)” value (Pseudomonas aeruginosa) was 4.7.
